Data as given in PubChem BioAssay AID504804 (Drosophila RNAi Screening Center, 2011).
Assay: 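dsRNAs that improve Kc cell survival under doxorubicin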 (primary screen). System: Drosophila Kc cells. Reagents: long dsRNA against Drosophila genes, 0.5 µg dsRNA per well. Timing: 96 h (48 h knock-down, then 48 h drug). Challenge: doxorubicin 5 µg/ml for 48 h, added 48 h after dsRNA. Measured: 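Luminescent ATP counts per replicate, not normalised, reflecting viable cells after 48 h dsRNA knock-down followed by 48 h of 5 µg/ml doxorubicin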. Direction: raw ATP luminescence: higher = more viable cells, protection from doxorubicin. Hit rule: 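z-score of 2 or more over plate mean in both duplicates, retained only when retests and separate dsRNAs confirm the protection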.
The deposit covers about 19,000 reagents; this is a random part of those that have a named target and a result. Over the whole deposit, 47 (0.25%) are marked active. 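Signals are raw, not normalised; exact z-scores behind calls not deposited; actives needed confirmation, so some wells reaching 2 SD are inactive.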 Names joined by + are all predicted targets of the reagent. No sequences are given here.

| Target gene | dsRNA | raw ATP luminescence, replicate 1 | raw ATP luminescence, replicate 2 | call |
| --- | --- | --- | --- | --- |
| CG17618 (retired record) + CG45049 | DRSC16163 | 60740 | 61650 | inactive |
| elB | DRSC01379 | 3.22e5 | 3.00e5 | inactive |
| elB | DRSC03527 | 47090 | 66507 | inactive |
| CG31751 | DRSC02464 | 42497 | 43487 | inactive |
| CG31751 | DRSC02465 | 45153 | 40587 | inactive |
| Tgi | DRSC09793 | 77390 | 61623 | inactive |
| Tgi | DRSC09794 | 66867 | 58720 | inactive |
| CG10459 | DRSC05991 | 32040 | 60793 | inactive |
| Eip93F | DRSC13527 | 2.20e5 | 2.58e5 | inactive |
| Eip93F | DRSC16661 | 28150 | 38180 | inactive |
| Pcd | DRSC16785 | 47420 | 44970 | inactive |
| CG3955 | DRSC06859 | 44830 | 68563 | inactive |
| CG11191 | DRSC06056 | 67830 | 58233 | inactive |
| CG16758 | DRSC07984 | 1.52e5 | 1.10e5 | inactive |
| CG16758 | DRSC08492 | 72413 | 62843 | inactive |
| Rabex-5 | DRSC08628 | 65660 | 63520 | inactive |
| CG12376 | DRSC06144 | 61653 | 51803 | inactive |
| CG10062 | DRSC05960 | 78220 | 69257 | inactive |
| Oscillin | DRSC03001 | 1.03e5 | 84337 | inactive |
| CG34296 | DRSC13961 | 2.25e5 | 2.50e5 | inactive |
| CG7460 | DRSC10850 | 52113 | 39307 | inactive |
| CG4000 | DRSC15535 | 60350 | 80140 | inactive |
| Atx2 | DRSC15727 | 15373 | 8573 | inactive |
| Ltn1 | DRSC11056 | 23673 | 19987 | inactive |
| Ltn1 | DRSC11058 | 70343 | 67197 | inactive |
| CR14798 | DRSC17956 | 55690 | 25150 | inactive |
| alien | DRSC03482 | 70330 | 58780 | inactive |
| CG34008 | DRSC13428 | 1.58e5 | 2.24e5 | inactive |
| hui | DRSC05977 | 55520 | 63260 | inactive |
| CG6424 | DRSC05936 | 57637 | 59930 | inactive |
| Tep2 | DRSC02679 | 18597 | 24317 | inactive |
| Tep2 | DRSC03451 | 21053 | 18640 | inactive |
| be | DRSC19944 | 4.26e5 | 3.68e5 | inactive |
| be | DRSC19945 | 4.66e5 | 3.32e5 | inactive |
